Test results: patent publication US5434248 (dated 1995)

Assay: general procedure: solution-phase peptide synthesis; EDC/HOBT
Conditions: late stage modification step

Substance | step yield [%]
N-(N-AcetylTyrosinyl-Valinyl-Alaninyl)-3-amino-4-oxo-9-phenyl nonanoic acid | 80
N-(N-AcetylTyrosinyl-Valinyl-Alaninyl)-3-amino-4-oxo-8-phenyl octanoic acid | 80
